Results are given in words; binding and its absence hold for the method and conditions named. Binding seen in cells or lysates may run through a third protein. Some binding calls cover weakened binding; strength is not graded here. Tags and fused reporters may be left off the sequences shown.
How the values were obtained:
Assay in all cases: co-IP; 293T cells co-transfected with HA-Rab40c and one FLAG-tagged PP6 component or PP6R1 deletion mutant; anti-FLAG IP, anti-HA blot
FLAG-ANKRD28 (human) = biological target: T1, FLAG-ANKRD28 (human) (UniProt O15084)
T1 sequence: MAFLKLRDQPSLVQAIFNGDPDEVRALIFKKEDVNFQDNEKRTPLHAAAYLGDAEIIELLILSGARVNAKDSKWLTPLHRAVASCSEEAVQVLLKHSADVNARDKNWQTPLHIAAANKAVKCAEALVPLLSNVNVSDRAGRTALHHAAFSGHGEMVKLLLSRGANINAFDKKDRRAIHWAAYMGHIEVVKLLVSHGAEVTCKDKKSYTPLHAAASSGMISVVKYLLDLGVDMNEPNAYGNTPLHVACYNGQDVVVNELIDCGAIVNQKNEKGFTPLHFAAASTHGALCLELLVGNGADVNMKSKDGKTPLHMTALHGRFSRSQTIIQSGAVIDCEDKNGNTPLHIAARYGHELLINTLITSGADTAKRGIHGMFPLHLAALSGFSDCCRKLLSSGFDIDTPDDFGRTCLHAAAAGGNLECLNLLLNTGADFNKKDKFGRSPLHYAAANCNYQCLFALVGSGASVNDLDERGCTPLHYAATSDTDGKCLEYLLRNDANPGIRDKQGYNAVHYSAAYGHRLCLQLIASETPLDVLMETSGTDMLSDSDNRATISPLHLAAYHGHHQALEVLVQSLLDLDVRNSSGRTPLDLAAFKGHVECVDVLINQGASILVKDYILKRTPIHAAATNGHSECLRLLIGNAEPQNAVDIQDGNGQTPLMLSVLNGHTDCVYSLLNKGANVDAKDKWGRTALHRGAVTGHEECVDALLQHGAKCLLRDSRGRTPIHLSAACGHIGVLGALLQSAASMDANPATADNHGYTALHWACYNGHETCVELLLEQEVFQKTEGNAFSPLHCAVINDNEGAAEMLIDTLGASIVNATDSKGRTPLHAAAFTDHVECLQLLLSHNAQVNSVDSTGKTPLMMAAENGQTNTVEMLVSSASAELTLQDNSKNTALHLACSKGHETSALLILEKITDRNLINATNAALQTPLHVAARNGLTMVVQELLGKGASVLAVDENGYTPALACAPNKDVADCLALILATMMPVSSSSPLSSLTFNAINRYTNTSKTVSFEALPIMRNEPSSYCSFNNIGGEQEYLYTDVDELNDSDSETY

Amino acid sequences for entries named in this document (tags omitted).
UniProt Q96S21: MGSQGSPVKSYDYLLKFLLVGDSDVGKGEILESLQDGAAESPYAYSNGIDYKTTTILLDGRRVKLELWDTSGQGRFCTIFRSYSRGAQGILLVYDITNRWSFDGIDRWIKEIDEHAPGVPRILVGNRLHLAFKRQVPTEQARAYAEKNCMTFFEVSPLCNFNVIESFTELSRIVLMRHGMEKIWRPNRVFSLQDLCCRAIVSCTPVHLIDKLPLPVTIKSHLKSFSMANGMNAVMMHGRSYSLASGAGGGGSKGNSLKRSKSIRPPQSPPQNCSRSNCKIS

FLAG-ANKRD44 (human) = biological target: T2, FLAG-ANKRD44 (human) (UniProt Q8N8A2)
T2 sequence: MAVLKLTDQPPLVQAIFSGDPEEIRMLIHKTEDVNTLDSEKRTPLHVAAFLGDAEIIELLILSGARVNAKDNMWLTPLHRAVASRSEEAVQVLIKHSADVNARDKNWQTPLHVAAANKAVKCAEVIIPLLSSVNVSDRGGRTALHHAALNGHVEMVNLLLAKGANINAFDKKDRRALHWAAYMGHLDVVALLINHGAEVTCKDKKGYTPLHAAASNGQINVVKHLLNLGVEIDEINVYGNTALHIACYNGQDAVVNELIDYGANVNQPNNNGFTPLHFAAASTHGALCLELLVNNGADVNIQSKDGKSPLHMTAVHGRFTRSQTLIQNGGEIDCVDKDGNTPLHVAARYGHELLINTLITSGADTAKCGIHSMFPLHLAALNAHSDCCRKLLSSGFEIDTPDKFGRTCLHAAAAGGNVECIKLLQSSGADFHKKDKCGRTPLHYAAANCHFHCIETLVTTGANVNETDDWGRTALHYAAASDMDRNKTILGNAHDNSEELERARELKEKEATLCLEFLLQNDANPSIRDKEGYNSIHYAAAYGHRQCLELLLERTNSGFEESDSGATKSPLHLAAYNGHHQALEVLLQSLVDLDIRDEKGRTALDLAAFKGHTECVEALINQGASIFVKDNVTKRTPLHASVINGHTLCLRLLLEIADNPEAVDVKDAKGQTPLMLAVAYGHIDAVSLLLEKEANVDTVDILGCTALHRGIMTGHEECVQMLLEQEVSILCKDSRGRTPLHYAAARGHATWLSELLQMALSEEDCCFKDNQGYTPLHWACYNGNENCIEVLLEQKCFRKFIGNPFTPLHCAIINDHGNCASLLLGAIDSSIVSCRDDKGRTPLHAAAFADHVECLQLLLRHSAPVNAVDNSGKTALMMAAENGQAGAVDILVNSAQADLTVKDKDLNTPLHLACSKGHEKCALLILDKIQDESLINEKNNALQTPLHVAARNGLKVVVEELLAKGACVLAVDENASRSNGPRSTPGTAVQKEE

FLAG-PP6R1 (human) = biological target: T3, FLAG-PP6R1 (human) (UniProt Q9UPN7)
T3 sequence: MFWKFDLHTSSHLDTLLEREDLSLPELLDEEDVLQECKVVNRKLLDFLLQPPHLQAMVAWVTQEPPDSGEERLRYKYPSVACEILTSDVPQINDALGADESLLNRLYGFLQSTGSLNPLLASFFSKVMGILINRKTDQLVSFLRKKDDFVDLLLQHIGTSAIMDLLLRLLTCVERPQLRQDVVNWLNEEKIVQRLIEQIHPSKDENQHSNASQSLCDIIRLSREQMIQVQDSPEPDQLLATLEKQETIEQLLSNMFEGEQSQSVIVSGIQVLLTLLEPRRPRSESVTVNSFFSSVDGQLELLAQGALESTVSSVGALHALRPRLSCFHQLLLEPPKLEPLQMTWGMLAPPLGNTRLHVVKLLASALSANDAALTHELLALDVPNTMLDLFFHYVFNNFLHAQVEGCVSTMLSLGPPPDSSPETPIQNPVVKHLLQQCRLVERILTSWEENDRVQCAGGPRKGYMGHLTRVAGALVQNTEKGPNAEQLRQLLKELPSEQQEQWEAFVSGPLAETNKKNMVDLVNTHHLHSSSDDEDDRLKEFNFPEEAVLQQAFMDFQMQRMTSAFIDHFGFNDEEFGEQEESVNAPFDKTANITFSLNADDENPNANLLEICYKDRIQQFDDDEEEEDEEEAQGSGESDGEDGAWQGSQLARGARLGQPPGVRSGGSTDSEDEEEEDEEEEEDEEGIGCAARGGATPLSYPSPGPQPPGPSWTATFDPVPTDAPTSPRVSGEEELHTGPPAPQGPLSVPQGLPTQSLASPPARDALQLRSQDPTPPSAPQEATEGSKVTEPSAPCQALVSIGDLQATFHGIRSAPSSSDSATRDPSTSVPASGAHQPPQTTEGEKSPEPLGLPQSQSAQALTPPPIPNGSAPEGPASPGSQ

- binding (FLAG-ANKRD28 (human)): binds
- binding (FLAG-ANKRD44 (human)): binds
- binding (FLAG-PP6R1 (human)): binds
Substance: HA-Rab40c (from UniProt Q96S21 1-281)
